Results on 52 compounds are retold here after PubChem BioAssay AID624256 (NMMLSC, 2012).

The list shows a part of the results.

This assay in a line: HoxA9-arrested leukemia cell differentiation promoters – flow cytometry, MLPCN library, primary screen (AID 624256).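 Also: cells exposed to compound for four days before flow analysis.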 Conditions: ER-HoxA9 myeloid progenitors, lysozyme-GFP differentiation, measured here: differentiation confirmed by MAC1 staining, at 10 µM, stronger effect = higher value. Background: In flow cytometry, cells or beads pass a laser one at a time.
Consider `CN1CCC(Nc2ccc(Cl)cc2)CC1`, for which the GFP+ MAC1+ double positive worked out at 0.6%.

As to `COc1cccc(C(c2nnnn2C2CCCC2)N2CCC(n3c(=O)[nH]c4ccccc43)CC2)c1OC` (configuration not stated), the GFP+ MAC1+ double positive is 2%. The result for `COc1cc(OC)cc(C(=O)NCC2(N3CCOCC3)CCCCC2)c1` reads 0.1%; that for `COc1cccc(C(=O)N(c2cc(C)cc(C)c2)C2CCN(C(=O)OC(C)(C)C)CC2)c1`, 0.3%; that for `CCC(CO)(C(=O)OC1CN2CCC1CC2)c1ccccc1` (configuration not stated), 1.4%. The value for `O=C(O)C1(Nc2ccccc2)CCN(Cc2ccccc2)CC1` was 0.7%; that for `NN(c1ccccc1)C1CCN(CCc2ccccc2)CC1` was 1.6%. Consider `CC(C)(C)OC(=O)N1CCC(Nc2ccccc2)CC1`, for which the GFP+ MAC1+ double positive was found to be 0.4%. The result for `CCCOc1ccc(C(=O)NCC2(N(C)C)CCCCC2)cc1` reads 0.4%. With `O=c1[nH]c2ccccc2n1C1CCN(C(c2cc3ccccc3o2)c2nnnn2C2CCCC2)CC1` (configuration not stated), the GFP+ MAC1+ double positive turned out to be 0.8%. Take `CN1CCC(Nc2ccc(F)c(Cl)c2)CC1`: the GFP+ MAC1+ double positive came out at 1.1%. The value for `CCOc1ncccc1C(=O)NCC1(N2CCOCC2)CCCCC1` was 0.8%. The value for `Cn1c(=O)[nH]cc(N(CCCl)CCCl)c1=O` was 1.4%.

As for `CN(C)c1ccc(C(=O)NCC2(N3CCCCC3)CCCCC2)cc1`, the GFP+ MAC1+ double positive was found to be 0.7%. In turn, `O=C(NCC1(N2CCCCC2)CCCCC1)c1ccco1` came in with a GFP+ MAC1+ double positive of 0.8%. Turning to `CC(C)(C)n1nnnc1C(c1ccnc2ccccc12)N1CCC(n2c(=O)[nH]c3ccccc32)CC1` (configuration not stated), the GFP+ MAC1+ double positive stood at 0.7%. The result for `COc1ccc(C(c2nnnn2C2CCCCC2)N2CCC(n3c(=O)[nH]c4ccccc43)CC2)cc1` (configuration not stated) reads 1.8%; that for `CCN1CCC(Nc2cccc(F)c2)CC1`, 1.3%.

`Cc1ccccc1NC1(C#N)CCN(Cc2ccccc2)CC1` had a GFP+ MAC1+ double positive of 0.4%.

Consider `Fc1ccccc1NC1CCN(Cc2ccccc2)CC1`, for which the GFP+ MAC1+ double positive was determined as 2%. The result for `Cc1ccc(C(=O)NCC2(N3CCCCC3)CCCCC2)o1` reads 1%. The value for `Cc1ccc(NC2(C#N)CCN(Cc3ccccc3)CC2)cc1` was 2.2%; that for `CCC(c1nnnn1C1CCCCC1)N1CCC(n2c(=O)[nH]c3ccccc32)CC1` (configuration not stated) was 0.4%. Turning to `CC(=O)N(c1ccccc1)C1CCNCC1`, the GFP+ MAC1+ double positive was determined as 0.6%. The value for `COc1cccc(C(c2nnnn2C2CCCCC2)N2CCC(n3c(=O)[nH]c4ccccc43)CC2)c1OC` (configuration not stated) was 3%; that for `O=c1[nH]c2ccccc2n1C1CCN(C(c2ccnc3ccccc23)c2nnnn2C2CCCCC2)CC1` (configuration not stated) was 1.6%. In turn, `COc1cc(OC)cc(C(=O)NCC2(N3CCCCC3)CCCCC2)c1` displayed a GFP+ MAC1+ double positive of 0.6%.

`CC(C)(C)n1nnnc1C(c1cccc2ccccc12)N1CCC(n2c(=O)[nH]c3ccccc32)CC1` (configuration not stated) came in with a GFP+ MAC1+ double positive of 0.8%. `CN(C)C1(CNC(=O)c2cccc(C#N)c2)CCCCC1` gave a GFP+ MAC1+ double positive of 0.6%.

Regarding `O=c1[nH]c2ccccc2n1C1CCN(C(c2ccccc2)c2nnnn2C2CCCC2)CC1` (configuration not stated), the GFP+ MAC1+ double positive is 0.8%. The result for `CCCN1CCC(Nc2cc(OC)cc(OC)c2)CC1` reads 0.7%. The result for `c1ccc(CN2CCC(Nc3ccccc3)CC2)cc1` reads 0.4%. The value for `N#Cc1ccc(C(=O)NCC2(N3CCCCC3)CCCCC2)cc1` was 0.5%; that for `CC(C)(C)OC(=O)N1CCC(N(C(=O)c2ccccc2)c2ccc(Cl)cc2)CC1` was 0.2%.

With `O=c1[nH]c2ccccc2n1C1CCN(C(c2cccs2)c2nnnn2C2CCCC2)CC1` (configuration not stated), the GFP+ MAC1+ double positive worked out at 1%.

`O=C(OC1CN2CCC1CC2)C1c2ccccc2C=Cc2ccccc21` (configuration not stated) gave a GFP+ MAC1+ double positive of 0.2%. The value for `CCCCn1nnnc1C(c1cccc(OC)c1OC)N1CCC(n2c(=O)[nH]c3ccccc32)CC1` (configuration not stated) was 0.8%.

`COc1cccc(C(c2nnnn2C(C)(C)C)N2CCC(n3c(=O)[nH]c4ccccc43)CC2)c1OC` (configuration not stated) showed a GFP+ MAC1+ double positive of 0.6%.

`N/C(=N\O)c1c(N)no[n+]1[O-]`: the GFP+ MAC1+ double positive was 0.6%. In turn, `O=c1[nH]c2ccccc2n1C1CCN(C(c2cccs2)c2nnnn2C2CCCCC2)CC1` (configuration not stated) came in with a GFP+ MAC1+ double positive of 1.2%.

Consider `O=c1[nH]c2ccccc2n1C1CCN(C(c2ccnc3ccccc23)c2nnnn2C2CCCC2)CC1` (configuration not stated), for which the GFP+ MAC1+ double positive stood at 1%.

The compound `COc1ccc(C(=O)NCC2(N3CCOCC3)CCCCC2)cc1OC` came in with a GFP+ MAC1+ double positive of 0.9%. Compound `COc1cc(C(=O)NCC2(N3CCOCC3)CCCCC2)cc(OC)c1C` registered a GFP+ MAC1+ double positive of 0.3%.

The compound `CCCCn1nnnc1C(c1ccccc1)N1CCC(n2c(=O)[nH]c3ccccc32)CC1` (configuration not stated) gave a GFP+ MAC1+ double positive of 1%. The value for `O=C(NCC1(N2CCOCC2)CCCCC1)c1cc(Br)ccc1Cl` was 1%. The value for `COc1ccc(C(c2nnnn2C2CCCC2)N2CCC(n3c(=O)[nH]c4ccccc43)CC2)cc1` (configuration not stated) was 0.3%. The value for `CCCOc1ccc(C(=O)NCC2(N(C)C)CCCCC2)cc1OC` was 0.6%; that for `Cc1ccc(C(=O)NCC2(N(C)C)CCCCC2)o1` was 0.6%; that for `O=C(NCC1(N2CCCCC2)CCCCC1)c1cncc(Br)c1` was 1.4%. `CN1CCC(Nc2cccc(F)c2)CC1` had a GFP+ MAC1+ double positive of 4.9%. The result for `O=C(NCC1(N2CCOCC2)CCCCC1)c1cc(F)c(F)cc1Cl` reads 0.5%.

In turn, `CCC(c1nnnn1C(C)(C)C)N1CCC(n2c(=O)[nH]c3ccccc32)CC1` (configuration not stated) gave a GFP+ MAC1+ double positive of 1%.
